Source: the supplement of paper PMC8728848
The list shows a part of the results.

Key:
Assay in all cases: glycan array binding signal (z-score within array); higher = stronger binding
Conditions in all cases: glycan notation: IUPAC condensed, linker removed
[1] = molecular target: Fuc(a1-2)[Gal(a1-3)]Gal(b1-4)GlcNAc(b1-2)Man(a1-3)[Fuc(a1-2)[Gal(a1-3)]Gal(b1-4)GlcNAc(b1-2)Man(a1-6)]Man(b1-4)GlcNAc(b1-4)[Fuc(a1-6)]GlcNAc
Procedure, shortened: (§1)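 Arrays were curated from the Consortium for Functional Glycomics database, 3228 in total, and kept only where the protein sequence was available. Binding is expressed as a within-array Z-score. This score was averaged across arrays of the same protein sequence at different concentrations or buffers and across linkers, and negative values can be read as non-binding.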

[2] = molecular target: Fuc(a1-2)[Gal(a1-3)]Gal(b1-4)GlcNAc(b1-3)GalNAc
Procedure, shortened: as §1

[3] = molecular target: Fuc(a1-2)[Gal(a1-3)]Gal(b1-4)GlcNAc(b1-6)GalNAc
Procedure, shortened: as §1

[4] = molecular target: Fuc(a1-2)[Gal(a1-3)]Gal(b1-4)[Fuc(a1-3)]Glc
Procedure, shortened: as §1

[5] = molecular target: Fuc(a1-2)[Gal(a1-3)]Gal(b1-4)[Fuc(a1-3)]GlcNAc
Procedure, shortened: as §1

[6] = molecular target: Fuc(a1-2)[Gal(a1-3)]Gal(b1-4)[Fuc(a1-3)]GlcNAc(b1-3)GalNAc
Procedure, shortened: as §1

[7] = molecular target: Fuc(a1-2)[Gal(a1-4)]Gal(b1-4)GlcNAc
Procedure, shortened: as §1

[8] = molecular target: Fuc(a1-2)[GalNAc(a1-3)]Gal
Procedure, shortened: as §1

[9] = molecular target: Fuc(a1-2)[GalNAc(a1-3)]Gal(b1-3)GalNAc(a1-3)[Fuc(a1-2)]Gal(b1-4)GlcNAc
Procedure, shortened: as §1

[10] = molecular target: Fuc(a1-2)[GalNAc(a1-3)]Gal(b1-3)GalNAc(b1-3)Gal(a1-4)Gal(b1-4)Glc
Procedure, shortened: as §1

[11] = molecular target: Fuc(a1-2)[GalNAc(a1-3)]Gal(b1-3)GlcNAc
Procedure, shortened: as §1

[12] = molecular target: Fuc(a1-2)[GalNAc(a1-3)]Gal(b1-3)GlcNAc(b1-2)Man(a1-3)[Fuc(a1-2)[GalNAc(a1-3)]Gal(b1-3)GlcNAc(b1-2)Man(a1-6)]Man(b1-4)GlcNAc(b1-4)GlcNAc
Procedure, shortened: as §1

[13] = molecular target: Fuc(a1-2)[GalNAc(a1-3)]Gal(b1-3)GlcNAc(b1-2)Man(a1-3)[Fuc(a1-2)[GalNAc(a1-3)]Gal(b1-3)GlcNAc(b1-2)Man(a1-6)]Man(b1-4)GlcNAc(b1-4)[Fuc(a1-6)]GlcNAc
Procedure, shortened: as §1

[14] = molecular target: Fuc(a1-2)[GalNAc(a1-3)]Gal(b1-3)GlcNAc(b1-3)GalNAc
Procedure, shortened: as §1

[15] = molecular target: Fuc(a1-2)[GalNAc(a1-3)]Gal(b1-3)GlcNAc(b1-6)GalNAc
Procedure, shortened: as §1

[16] = molecular target: Fuc(a1-2)[GalNAc(a1-3)]Gal(b1-4)Glc
Procedure, shortened: as §1

[17] = molecular target: Fuc(a1-2)[GalNAc(a1-3)]Gal(b1-4)GlcNAc
Procedure, shortened: as §1

[18] = molecular target: Fuc(a1-2)[GalNAc(a1-3)]Gal(b1-4)GlcNAc(b1-2)Man
Procedure, shortened: as §1

[19] = molecular target: Fuc(a1-2)[GalNAc(a1-3)]Gal(b1-4)GlcNAc(b1-2)Man(a1-3)[Fuc(a1-2)[GalNAc(a1-3)]Gal(b1-4)GlcNAc(b1-2)Man(a1-6)]Man(b1-4)GlcNAc(b1-4)GlcNAc
Procedure, shortened: as §1

[20] = molecular target: Fuc(a1-2)[GalNAc(a1-3)]Gal(b1-4)GlcNAc(b1-2)Man(a1-3)[Fuc(a1-2)[GalNAc(a1-3)]Gal(b1-4)GlcNAc(b1-2)Man(a1-6)]Man(b1-4)GlcNAc(b1-4)[Fuc(a1-6)]GlcNAc
Procedure, shortened: as §1

[21] = molecular target: Fuc(a1-2)[GalNAc(a1-3)]Gal(b1-4)GlcNAc(b1-3)Gal(b1-4)GlcNAc
Procedure, shortened: as §1

[22] = molecular target: Fuc(a1-2)[GalNAc(a1-3)]Gal(b1-4)GlcNAc(b1-3)Gal(b1-4)GlcNAc(b1-3)Gal(b1-4)GlcNAc
Procedure, shortened: as §1

[23] = molecular target: Fuc(a1-2)[GalNAc(a1-3)]Gal(b1-4)GlcNAc(b1-3)GalNAc
Procedure, shortened: as §1

[24] = molecular target: Fuc(a1-2)[GalNAc(a1-3)]Gal(b1-4)GlcNAc(b1-3)[Fuc(a1-2)[GalNAc(a1-3)]Gal(b1-4)GlcNAc(b1-6)]GalNAc
Procedure, shortened: as §1

[25] = molecular target: Fuc(a1-2)[GalNAc(a1-3)]Gal(b1-4)GlcNAc(b1-6)GalNAc
Procedure, shortened: as §1

[26] = molecular target: Fuc(a1-2)[GalNAc(a1-3)]Gal(b1-4)[Fuc(a1-3)]GlcNAc
Procedure, shortened: as §1

[27] = molecular target: Fuc(a1-2)[GalNAc(a1-3)]Gal(b1-4)[Fuc(a1-3)]GlcNAc(b1-3)GalNAc
Procedure, shortened: as §1

[28] = molecular target: Fuc(a1-2)[GalNAc(a1-4)]Gal(b1-4)GlcNAc
Procedure, shortened: as §1

[29] = molecular target: Fuc(a1-2)[GalNAc(b1-3)]Gal
Procedure, shortened: as §1

Fuc(a1-3)GlcNAc = molecular target: Fuc(a1-3)GlcNAc
Procedure, shortened: as §1

B1: Blon0732mut (Bifidobacterium longum) (protein)
chain: MPTSEHKADDATRHLTLIPAPVTLEYTHGTALIGPLVTIEDADQSWETLPIEQLSDELRHRYGVTVLRRRTHGTVISLGLDSRLAHDEYTLDVSESEGIRVRGGGESGLRYGLQTLRQIIGQTSRAIPCLHIQDKPAFAVRAYSLDVTRGRVPTMEFLTWFVDQLALYKYNQFQLYVEHAFAFVELSEAWRGTDPLTAADITYLDEYCARRGIELVPSLATFGHMYMNLRTREHRGLGEFPEDADRPFSFIERMEHHTLNAADPKAHDFASRLIEEYAPLFRSKSFNIGGNETFDLGRGRSAQDAPEAGRDELYAGFVRDLCETLARHGRQPMLWADIALESPRTMDLLPGDITMLNWMYEPQIDESKIQTIATQGRRQFVCPAVRAWSRFFPDYAGAWLNTYHMALAGTKYDAEGMVVTDWGDYGHVNDPRLSVPGLCYGAQNAWNPIEIDAHEMNRRISALVYGDESGRIMDCLARIDSDGVSFPWDLAVQVLELEYGSGTGALNMDVAACMERSSGGKLTLDRTLGCDDARRRMLQWNRERIERRRDCDQVLRDCGDAFAGLDKGGLTAEFLSVMLDGQRLFNELGEELLALADGKDVGSGANRLAADLELWFERYRAQWLSVGRHAELARIAHVVWSLADILRRGAL
glycan array binding signal (z-score) [1]: -0.644 | glycan array binding signal (z-score) [2]: -0.533 | glycan array binding signal (z-score) [3]: 0.06 | glycan array binding signal (z-score) [4]: 0.392 | glycan array binding signal (z-score) [5]: -0.131 | glycan array binding signal (z-score) [6]: -0.971 | glycan array binding signal (z-score) [7]: 1.94 | glycan array binding signal (z-score) [8]: -0.124 | glycan array binding signal (z-score) [9]: -0.026 | glycan array binding signal (z-score) [10]: -1.01 | glycan array binding signal (z-score) [11]: -0.382 | glycan array binding signal (z-score) [12]: -0.632 | glycan array binding signal (z-score) [13]: 0.408 | glycan array binding signal (z-score) [14]: -0.538 | glycan array binding signal (z-score) [15]: -0.809 | glycan array binding signal (z-score) [16]: -0.005 | glycan array binding signal (z-score) [17]: 0.684 | glycan array binding signal (z-score) [18]: -1.17 | glycan array binding signal (z-score) [19]: 0.397 | glycan array binding signal (z-score) [20]: -0.011 | glycan array binding signal (z-score) [21]: -0.48 | glycan array binding signal (z-score) [22]: 0.035 | glycan array binding signal (z-score) [23]: -1.2 | glycan array binding signal (z-score) [24]: -0.86 | glycan array binding signal (z-score) [25]: -0.326 | glycan array binding signal (z-score) [26]: 1.44 | glycan array binding signal (z-score) [27]: 1.75 | glycan array binding signal (z-score) [28]: -0.527 | glycan array binding signal (z-score) [29]: 0.44 | glycan array binding signal (z-score) (Fuc(a1-3)GlcNAc): -0.438
